Results published in paper PMC4944948.
The exact form of at least one protein or probe is not confirmed. For some of these results: Results from cells or extracts need not show a direct contact. For some of these results: Weaker means in comparison with the reference protein, sequence or condition of that experiment. For some of these results: At least one verdict rests on a figure or table, not on a statement of the authors.

The chains behind the UniProt entries cited, without tags or fusion partners.
UniProt Q13285, whole entry: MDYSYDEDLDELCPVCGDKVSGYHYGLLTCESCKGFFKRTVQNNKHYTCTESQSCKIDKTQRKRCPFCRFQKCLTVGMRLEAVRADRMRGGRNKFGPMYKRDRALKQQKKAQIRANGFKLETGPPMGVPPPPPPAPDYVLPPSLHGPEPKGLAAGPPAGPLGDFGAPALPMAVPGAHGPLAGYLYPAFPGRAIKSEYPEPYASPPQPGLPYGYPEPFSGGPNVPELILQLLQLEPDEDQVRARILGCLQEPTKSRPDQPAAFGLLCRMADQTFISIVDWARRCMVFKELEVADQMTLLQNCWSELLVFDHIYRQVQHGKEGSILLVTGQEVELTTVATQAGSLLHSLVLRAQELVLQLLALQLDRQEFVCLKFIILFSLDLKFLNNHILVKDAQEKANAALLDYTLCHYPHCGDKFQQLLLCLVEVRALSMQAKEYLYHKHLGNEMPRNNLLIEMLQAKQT

What was measured:
[1] = molecular target: SF-1 (FLAG-tagged, purified) (UniProt Q13285); assay: EMSA; details: with purified Myc-FOXL2 WT, binding enhanced; not given; EMSA as previously reported (ref 30); 5 ug KGN nuclear extract, 200-fold excess cold probe; recombinant protein; protein details: FLAG; label: radiolabel
[2] = molecular target: SF-1 (FLAG-tagged, overexpressed in KGN cells) (UniProt Q13285); assay: EMSA; details: not given, EMSA as previously reported (ref 30), 5 ug KGN nuclear extract, 200-fold excess cold probe, protein in an extract, protein details: FLAG, label: radiolabel
[3] = molecular target: SF-1 (FLAG-tagged, overexpressed in KGN cells) (UniProt Q13285); assay: EMSA supershift; details: nuclear extract 5 ug, supershifted by anti-FLAG, abolished by 200-fold cold probe; not given; EMSA as previously reported (ref 30); 5 ug KGN nuclear extract, 200-fold excess cold probe; protein in an extract; protein details: FLAG; label: radiolabel

“TGTCCCCCAAGGTCGCGGCAG (double strand) [AMH promoter SBE1 probe]”: binds [1]; binds ([2]; FOXL2 co-overexpressed, complex increased); binds more weakly ([2]; FOXL2 knockdown (siRNA), complex greatly reduced). “TGTCCCCCAAGGTCGCGGCAG (double strand) [AMH promoter SBE1 probe]”: binds [3].
